{"source": "PubChem BioAssay AID1259254, NCATS | 2017", "aim": "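Genome-wide screen for genes that prevent DNA re-replication in cancer cells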 (primary screen)", "cell system": "human HCT116 colorectal cancer cells", "knock-down reagent": "single siRNA against human genes", "time to read-out": "3 days", "detection": "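Nuclei stained with Hoechst and imaged; cell-cycle phase assigned by DNA content; G2 share scaled per plate, non-targeting siRNA 0%, GMNN siRNA 100%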", "direction": "G2 robust z-score: higher = more G2 cells, more excess DNA replication", "hit rule": "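An siRNA counts as active if its G2 robust z-score lies at least 5 MADs above the screen median; here such calls match roughly 38% of GMNN control or more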", "note": "The whole screen tested about 59,000 reagents; this is an unselected part. About 1,550 of them (2.6%) count as active. 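G2 share is only a proxy for re-replication; each gene was hit by three separate siRNAs, and active genes were retested.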 The numbers tell different reagents against one gene apart. Not all columns of the deposit are shown. The record does not give: the amount of reagent."}
{"target gene": "FBXO40 (F-box protein 40)", "siRNA no.": 1, "G2 robust z-score": 3.04, "activity call": "inactive"}
{"target gene": "FBXO40 (F-box protein 40)", "siRNA no.": 2, "G2 robust z-score": 0.487, "activity call": "inactive"}
{"target gene": "FBXO40 (F-box protein 40)", "siRNA no.": 3, "G2 robust z-score": 2.53, "activity call": "inactive"}
{"target gene": "SLC25A22", "siRNA no.": 1, "G2 robust z-score": 1.28, "activity call": "inactive"}
{"target gene": "SLC25A22", "siRNA no.": 2, "G2 robust z-score": 5.71, "activity call": "active"}
{"target gene": "SLC25A22", "siRNA no.": 3, "G2 robust z-score": -0.569, "activity call": "inactive"}
{"target gene": "TBC1D8B (TBC1 domain family member 8B)", "siRNA no.": 1, "G2 robust z-score": 0.0263, "activity call": "inactive"}
{"target gene": "TBC1D8B (TBC1 domain family member 8B)", "siRNA no.": 2, "G2 robust z-score": 1.36, "activity call": "inactive"}
{"target gene": "TBC1D8B (TBC1 domain family member 8B)", "siRNA no.": 3, "G2 robust z-score": -0.513, "activity call": "inactive"}
{"target gene": "ASRGL1 (asparaginase and isoaspartyl peptidase 1)", "siRNA no.": 1, "G2 robust z-score": -1.07, "activity call": "inactive"}
{"target gene": "ASRGL1 (asparaginase and isoaspartyl peptidase 1)", "siRNA no.": 2, "G2 robust z-score": 2.11, "activity call": "inactive"}
{"target gene": "ASRGL1 (asparaginase and isoaspartyl peptidase 1)", "siRNA no.": 3, "G2 robust z-score": 3.06, "activity call": "inactive"}
{"target gene": "LINC00482 (long independently transcribed non-coding RNA 482)", "siRNA no.": 1, "G2 robust z-score": -0.719, "activity call": "inactive"}
{"target gene": "LINC00482 (long independently transcribed non-coding RNA 482)", "siRNA no.": 2, "G2 robust z-score": 0.11, "activity call": "inactive"}
{"target gene": "LINC00482 (long independently transcribed non-coding RNA 482)", "siRNA no.": 3, "G2 robust z-score": -0.88, "activity call": "inactive"}
{"target gene": "AK1 (adenylate kinase 1)", "siRNA no.": 1, "G2 robust z-score": -1.61, "activity call": "inactive"}
{"target gene": "AK1 (adenylate kinase 1)", "siRNA no.": 2, "G2 robust z-score": -1.29, "activity call": "inactive"}
{"target gene": "AK1 (adenylate kinase 1)", "siRNA no.": 3, "G2 robust z-score": 0.553, "activity call": "inactive"}
{"target gene": "ARFIP2 (ARF interacting protein 2)", "siRNA no.": 1, "G2 robust z-score": 0.607, "activity call": "inactive"}
{"target gene": "ARFIP2 (ARF interacting protein 2)", "siRNA no.": 2, "G2 robust z-score": -0.798, "activity call": "inactive"}
{"target gene": "ARFIP2 (ARF interacting protein 2)", "siRNA no.": 3, "G2 robust z-score": 0.0986, "activity call": "inactive"}
{"target gene": "AHRR (aryl hydrocarbon receptor repressor)", "siRNA no.": 1, "G2 robust z-score": -0.719, "activity call": "inactive"}
{"target gene": "AHRR (aryl hydrocarbon receptor repressor)", "siRNA no.": 2, "G2 robust z-score": -1.12, "activity call": "inactive"}
{"target gene": "AHRR (aryl hydrocarbon receptor repressor)", "siRNA no.": 3, "G2 robust z-score": -0.637, "activity call": "inactive"}
{"target gene": "ALB (albumin)", "siRNA no.": 1, "G2 robust z-score": 0.0687, "activity call": "inactive"}
{"target gene": "ALB (albumin)", "siRNA no.": 2, "G2 robust z-score": -0.463, "activity call": "inactive"}
{"target gene": "ALB (albumin)", "siRNA no.": 3, "G2 robust z-score": 3.93, "activity call": "inactive"}
{"target gene": "APCDD1L-DT (APCDD1L divergent transcript)", "siRNA no.": 1, "G2 robust z-score": -0.232, "activity call": "inactive"}
{"target gene": "APCDD1L-DT (APCDD1L divergent transcript)", "siRNA no.": 2, "G2 robust z-score": 0.442, "activity call": "inactive"}
{"target gene": "APCDD1L-DT (APCDD1L divergent transcript)", "siRNA no.": 3, "G2 robust z-score": 1.36, "activity call": "inactive"}

Looked up above.
AK1 (adenylate kinase 1) #2, activity call: inactive
For “activity call”, ALB (albumin) #1 has inactive
LINC00482 (long independently transcribed non-coding RNA 482) #1, activity call = inactive
For “G2 robust z-score”, APCDD1L-DT (APCDD1L divergent transcript) #1 reads -0.232
